{"sequences": {"note": "Protein sequences, listed by entry. Tags and fused reporters are not part of them.", "UniProt P23977, whole entry": "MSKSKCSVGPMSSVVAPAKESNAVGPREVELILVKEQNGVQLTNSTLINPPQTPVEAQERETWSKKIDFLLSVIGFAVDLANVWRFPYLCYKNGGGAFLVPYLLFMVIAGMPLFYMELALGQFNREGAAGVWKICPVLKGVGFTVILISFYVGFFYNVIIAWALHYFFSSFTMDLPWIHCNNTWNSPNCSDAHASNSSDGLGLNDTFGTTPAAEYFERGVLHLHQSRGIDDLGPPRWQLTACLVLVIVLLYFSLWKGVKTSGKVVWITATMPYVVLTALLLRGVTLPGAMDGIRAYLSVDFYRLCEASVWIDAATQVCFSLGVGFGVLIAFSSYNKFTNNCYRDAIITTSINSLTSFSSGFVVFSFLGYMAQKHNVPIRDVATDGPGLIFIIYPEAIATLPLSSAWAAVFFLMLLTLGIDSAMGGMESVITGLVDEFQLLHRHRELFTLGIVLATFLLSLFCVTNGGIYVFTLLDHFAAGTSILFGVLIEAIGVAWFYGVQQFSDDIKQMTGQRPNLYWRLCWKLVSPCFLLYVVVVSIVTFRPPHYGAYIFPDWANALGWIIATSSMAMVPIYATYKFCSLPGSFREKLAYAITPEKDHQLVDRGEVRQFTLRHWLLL"}, "source": "patent US6440996B1", "about": "“Monomeric and dimeric heterocycles, and therapeutic uses thereof” (priority 1998, dated 2002)", "target": "dopamine transporter (Rattus norvegicus, UniProt P23977)", "assay": "[3H]WIN 35,428 binding to rat striatal membranes / dopamine transporter binding (DAT)", "conditions": "read-out: DAT IC50 (nm); Table 2", "note": "Some entries of the source have several records that differ or are many. The list is limited to them. The source may hold further records. Results that share an entry differ for a reason that is not stated; they may come from other doses, times, organisms or constructs than stated.", "data": [{"smiles": "CCC[C@@H]1CN(C)CC[C@H]1c1ccc(Cl)cc1", "note": "(single isomer, unassigned)", "values": [{"measurement": "IC50", "value": "17 nM and 55 nM"}]}]}
